Source: patent US20080275029A1, “Compounds for Treating Protein-Kinase Mediated Disorders” (ASTEX THERAPEUTICS LIMITED, priority 2004, published 2008)
Some results were stated once for a whole list of compounds, not compound by compound.

Sequences of proteins named here, by UniProt entry; tags and fusion partners are left off. A line that says so, or that is headed by a name, gives the form on record, which may keep a tag or linker.
UniProt P31751, with tags, fused parts or gaps limits assumed: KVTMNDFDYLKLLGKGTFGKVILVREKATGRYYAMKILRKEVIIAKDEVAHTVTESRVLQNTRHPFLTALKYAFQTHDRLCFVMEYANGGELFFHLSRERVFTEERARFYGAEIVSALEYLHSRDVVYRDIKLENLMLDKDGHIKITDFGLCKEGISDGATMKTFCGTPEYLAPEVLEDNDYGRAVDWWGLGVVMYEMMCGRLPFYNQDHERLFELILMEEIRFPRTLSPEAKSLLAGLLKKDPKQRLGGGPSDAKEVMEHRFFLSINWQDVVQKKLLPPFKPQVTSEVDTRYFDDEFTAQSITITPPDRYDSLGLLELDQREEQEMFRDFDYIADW

Target: T1, protein kinase B (PKB), fusion protein PKB-PIF (Homo sapiens, UniProt P31751)
T1 construct: made in house
Assay: Measurement of PKB kinase inhibitory activity (IC50)
Assay type: biochemical
Conditions: PKB-PIF activated with PDK1, 30 μM ATP, AKTide-2T substrate, 20 minutes; read-out: IC50 (concentration required to inhibit 50% of the PKB activity)
Description: The inhibition of protein kinase B (PKB) activity by compounds can be determined essentially as described by Andjelkovic et al. (Mol. Cell. Biol. 19, 5061-5072 (1999)) but using a fusion protein described as PKB-PIF and described in full by Yang et al (Nature Structural Biology 9, 940-944 (2002)). […] A final concentration of 0.6 nM enzyme is used in a buffer that includes 20 mM MOPS pH 7.2, 30 μM ATP/γ^33P-ATP and 25 μM substrate. Compounds are added in DMSO solution to a final DMSO concentration of 2.5%. The reaction is allowed to proceed for 20 minutes before addition of excess orthophosphoric acid to quench activity. The reaction mixture is transferred to a phosphocellulose filter plate where the peptide binds and the unused ATP is washed away. After washing, scintillant is added and the incorporated activity measured by scintillation counting.
The % inhibition of the PKB activity is calculated and plotted in order to determine the concentration of test compound required to inhibit 50% of the PKB activity (IC50).

| SMILES | IC50 [µM] |
| --- | --- |
| NC(CCNC(=O)c1ccc2c(=O)[nH]cnc2c1)c1ccc(Cl)cc1 (centres unmarked) [Example 11, 4-Oxo-3,4-dihydro-quinazoline-7-carboxylic acid[3-amino-3-(4-chloro-phenyl)-propyl]-amide] | < 50 |
| O=C(Nc1ccc(Cl)cc1)Nc1ccc2c(=O)[nH]cnc2c1 [Example 13, 1-(4-Chloro-phenyl)-3-(4-oxo-3,4-dihydro-quinazolin-7-yl)-urea] | < 50 |
